These are yes or no findings as the source states them, for the method shown. Binding seen in cells or lysates may run through a third protein. For some assays here: A result given as binding can be weak or reduced; the word gives no strength.
Columns and labels:
[1] = molecular target: CAPN2[C105S]-3xFlag-6xHis in complex with CAPNS1(86–268); assay: pull-down; same substrate trapping; bound proteins eluted with TBS + 5 mM EGTA, then SDS (Laemmli) elution; immunoblot; only the target purified
[2] = molecular target: CAPN2[C105S]-3xFlag-6xHis in complex with CAPNS1(86–268); assay: pull-down; substrate trapping: 3xFlag baits (6 μM) on anti-Flag agarose; HCT116 cytosol with 2 mM CaCl2 and E64, 2 h at 4°C; washes TBS + 1 mM CaCl2 + 0.01% Tween-20; immunoblot of elutions; only the target purified

binding [1]: no binding (only with 5 mM EGTA)
binding [2]: binds
B1: annexin A6 (protein, UniProt P08133 1-673)
chain: MAKPAQGAKYRGSIHDFPGFDPNQDAEALYTAMKGFGSDKEAILDIITSRSNRQRQEVCQSYKSLYGKDLIADLKYELTGKFERLIVGLMRPPAYCDAKEIKDAISGIGTDEKCLIEILASRTNEQMHQLVAAYKDAYERDLEADIIGDTSGHFQKMLVVLLQGTREEDDVVSEDLVQQDVQDLYEAGELKWGTDEAQFIYILGNRSKQHLRLVFDEYLKTTGKPIEASIRGELSGDFEKLMLAVVKCIRSTPEYFAERLFKAMKGLGTRDNTLIRIMVSRSELDMLDIREIFRTKYEKSLYSMIKNDTSGEYKKTLLKLSGGDDDAAGQFFPEAAQVAYQMWELSAVARVELKGTVRPANDFNPDADAKALRKAMKGLGTDEDTIIDIITHRSNVQRQQIRQTFKSHFGRDLMTDLKSEISGDLARLILGLMMPPAHYDAKQLKKAMEGAGTDEKALIEILATRTNAEIRAINEAYKEDYHKSLEDALSSDTSGHFRRILISLATGHREEGGENLDQAREDAQVAAEILEIADTPSGDKTSLETRFMTILCTRSYPHLRRVFQEFIKMTNYDVEHTIKKEMSGDVRDAFVAIVQSVKNKPLFFADKLYKSMKGAGTDEKTLTRIMVSRSEIDLLNIRREFIEKYDKSLHQAIEGDTSGDFLKALLALCGGED

Source: PMC12083247
